Laboratory results taken from patent US20060270643A1, “Hyfroxyflutamide induced pathways related to androgen receptor negative prostate cancer cells” (priority 2002, published 2006).
Like-named read-outs stand apart in the source and are kept apart here. For at least one compound, name, drawing or mass did not settle the structure.

Assays:
[1] = target: T1, AR (Homo sapiens, UniProt P10275, T878A); experiment: MMTV-luc luciferase reporter assay of AR transactivation in LNCaP cells; format: cell-based; details: 20 μM LY294002, 10 nM DHT
T1 construct: endogenous in cells; host or cells: LNCaP
T1 sequence (P10275 1-920 T878A): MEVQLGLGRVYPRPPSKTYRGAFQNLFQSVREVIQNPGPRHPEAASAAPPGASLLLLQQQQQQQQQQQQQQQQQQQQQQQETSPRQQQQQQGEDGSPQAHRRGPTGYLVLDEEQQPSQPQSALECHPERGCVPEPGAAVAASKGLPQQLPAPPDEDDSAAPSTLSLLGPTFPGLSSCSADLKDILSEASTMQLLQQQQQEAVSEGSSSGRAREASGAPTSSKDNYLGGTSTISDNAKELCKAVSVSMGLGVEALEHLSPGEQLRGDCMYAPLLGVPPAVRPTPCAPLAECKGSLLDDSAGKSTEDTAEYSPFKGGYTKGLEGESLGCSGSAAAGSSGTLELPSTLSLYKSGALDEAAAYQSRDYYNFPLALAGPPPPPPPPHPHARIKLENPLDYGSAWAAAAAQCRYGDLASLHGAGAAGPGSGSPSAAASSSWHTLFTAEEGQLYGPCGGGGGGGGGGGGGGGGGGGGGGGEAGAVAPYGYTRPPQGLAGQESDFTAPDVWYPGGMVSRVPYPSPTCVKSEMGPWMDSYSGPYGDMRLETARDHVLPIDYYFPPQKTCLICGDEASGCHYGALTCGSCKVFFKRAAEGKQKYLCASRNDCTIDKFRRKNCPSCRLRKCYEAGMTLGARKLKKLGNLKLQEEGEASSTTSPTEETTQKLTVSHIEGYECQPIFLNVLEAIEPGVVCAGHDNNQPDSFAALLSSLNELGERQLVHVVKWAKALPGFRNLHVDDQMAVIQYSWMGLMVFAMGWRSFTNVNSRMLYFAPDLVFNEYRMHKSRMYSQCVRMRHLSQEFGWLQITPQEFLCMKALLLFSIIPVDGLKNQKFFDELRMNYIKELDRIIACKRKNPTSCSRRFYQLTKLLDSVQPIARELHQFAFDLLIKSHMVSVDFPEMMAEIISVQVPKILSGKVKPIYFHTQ

[2] = test system: prostate specific antigen (PSA) expression; experiment: Western blot of androgen-induced PSA expression in LNCaP cells; format: cell-based, human; details: 20 μM LY294002, 10 nM DHT
[3] = test system: AR; experiment: AR phosphorylation in LNCaP cells (immunoprecipitation / Western blot); format: cell-based, human; details: LNCaP cells (P38), 20 μM LY294002 30 min prior to IGF-1
Protocol: (§1) 14. […] Anti-pSer, anti-phosphoserine antibody. […] Total AR protein was blotted using an anti-AR antibody (AR), and AR phosphorylation was detected using an anti-phospho-AR (S210) antibody (pAR). […] The cells were then harvested for immunoprecipitation with anti-AR antibody and Western blot analysis. NH27, anti-AR antibody, anti-pSer, anti-phosphoserine antibody.
(§2) 219. The imrnunoprecipitation and Western blotting were performed as previously described (Lin, H. K., et al. (2001) Proc Natl Acad Sci USA 98, 7200-7205). The cell extracts (1 mg) were immunoprecipitated with the indicated antibody. The immunocomplexes were subjected to 8% SDS-PAGE and immunoblotted with the indicated antibody.

[4] = test system: AR; experiment: AR phosphorylation in COS-1 cells transfected with wtAR or mtAR; format: cell-based; details: 20 μM LY294002 30 min prior to IGF-1
Protocol: as §1, §2

[5] = test system: AR; experiment: Western blot of AR protein levels in LNCaP cells; format: cell-based, human; details: 20 μM LY294002
[6] = test system: AR; details: LNCaP cells; Lin et al. (2002) Embo J 21, 4037-4048; cited from earlier work

With `O=c1cc(N2CCOCC2)oc2c(-c3ccccc3)cccc12` [LY294002] the “AR activity (reporter gene assay)” value ([1]; high passage number LNCaP cells (P60)) was “suppressed AR activity”, the “AR activity (reporter gene assay)” value ([1]; low passage number LNCaP cells (P25)) was “slightly enhanced AR activity” and the PSA expression ([2]; high passage number LNCaP cells) was “suppressed PSA expression”. For the same molecule, the “androgen-induced PSA expression” value ([2]; low passage number LNCaP cells) was “increased androgen-induced prostate specific antigen (PSA) expression”, the “block of IGF-1-mediated AR phosphorylation” value [3] was “blocked IGF-1-mediated AR phosphorylation” and the “block of IGF-1-mediated phosphorylation of wtAR” value [4] was “blocked the IGF-1-mediated phosphorylation”. For the same molecule, the AR protein levels ([5]; high passage LNCaP cells) was “slightly reduced AR protein levels”, the AR protein levels ([5]; low passage LNCaP cells) was “enhanced AR protein levels” and the AR protein levels [6] was “increased AR protein levels”.
